Results reported in paper PMC6251625.
Numbering of substitutions follows the chain as printed. Results are given in words; binding and its absence hold for the method and conditions named. Binding seen in cells or lysates may run through a third protein. Some binding calls cover weakened binding; strength is not graded here. Sequences can lack the tags named with a protein.

Amino acid sequences for entries named in this document (tags omitted).
UniProt Q9NVI1: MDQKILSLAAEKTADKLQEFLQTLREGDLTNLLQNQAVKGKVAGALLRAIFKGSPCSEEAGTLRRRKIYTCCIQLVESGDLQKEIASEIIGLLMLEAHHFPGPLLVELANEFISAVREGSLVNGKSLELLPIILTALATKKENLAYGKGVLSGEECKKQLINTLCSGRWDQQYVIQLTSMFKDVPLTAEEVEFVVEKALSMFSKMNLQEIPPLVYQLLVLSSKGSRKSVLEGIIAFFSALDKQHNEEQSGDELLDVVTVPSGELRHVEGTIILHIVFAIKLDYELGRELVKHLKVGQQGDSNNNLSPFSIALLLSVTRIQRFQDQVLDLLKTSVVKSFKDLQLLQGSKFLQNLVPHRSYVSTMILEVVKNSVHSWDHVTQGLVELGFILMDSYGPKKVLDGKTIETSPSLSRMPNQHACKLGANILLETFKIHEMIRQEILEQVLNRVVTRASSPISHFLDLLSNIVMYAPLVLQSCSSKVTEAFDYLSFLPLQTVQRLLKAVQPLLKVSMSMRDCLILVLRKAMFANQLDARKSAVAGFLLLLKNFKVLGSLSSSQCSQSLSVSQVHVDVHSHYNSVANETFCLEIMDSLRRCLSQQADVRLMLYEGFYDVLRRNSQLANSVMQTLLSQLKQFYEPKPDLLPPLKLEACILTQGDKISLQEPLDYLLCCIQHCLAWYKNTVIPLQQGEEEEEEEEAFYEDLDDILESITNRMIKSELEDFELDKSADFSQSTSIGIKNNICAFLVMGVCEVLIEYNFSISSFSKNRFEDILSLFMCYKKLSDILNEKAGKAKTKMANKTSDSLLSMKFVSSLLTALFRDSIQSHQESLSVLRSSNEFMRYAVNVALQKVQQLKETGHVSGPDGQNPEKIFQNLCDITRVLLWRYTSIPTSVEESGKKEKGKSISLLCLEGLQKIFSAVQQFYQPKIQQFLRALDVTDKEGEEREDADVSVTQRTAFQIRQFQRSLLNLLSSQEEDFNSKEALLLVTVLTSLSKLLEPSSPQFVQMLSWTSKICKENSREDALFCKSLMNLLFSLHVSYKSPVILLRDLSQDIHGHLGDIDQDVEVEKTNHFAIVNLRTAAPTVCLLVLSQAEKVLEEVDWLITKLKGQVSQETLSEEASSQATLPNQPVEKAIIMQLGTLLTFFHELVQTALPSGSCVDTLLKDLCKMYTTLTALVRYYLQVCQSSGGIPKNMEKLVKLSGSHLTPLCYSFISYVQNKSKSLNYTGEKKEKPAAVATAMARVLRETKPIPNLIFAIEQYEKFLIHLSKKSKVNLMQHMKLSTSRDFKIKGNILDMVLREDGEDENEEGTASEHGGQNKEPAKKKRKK
UniProt Q9BXW9: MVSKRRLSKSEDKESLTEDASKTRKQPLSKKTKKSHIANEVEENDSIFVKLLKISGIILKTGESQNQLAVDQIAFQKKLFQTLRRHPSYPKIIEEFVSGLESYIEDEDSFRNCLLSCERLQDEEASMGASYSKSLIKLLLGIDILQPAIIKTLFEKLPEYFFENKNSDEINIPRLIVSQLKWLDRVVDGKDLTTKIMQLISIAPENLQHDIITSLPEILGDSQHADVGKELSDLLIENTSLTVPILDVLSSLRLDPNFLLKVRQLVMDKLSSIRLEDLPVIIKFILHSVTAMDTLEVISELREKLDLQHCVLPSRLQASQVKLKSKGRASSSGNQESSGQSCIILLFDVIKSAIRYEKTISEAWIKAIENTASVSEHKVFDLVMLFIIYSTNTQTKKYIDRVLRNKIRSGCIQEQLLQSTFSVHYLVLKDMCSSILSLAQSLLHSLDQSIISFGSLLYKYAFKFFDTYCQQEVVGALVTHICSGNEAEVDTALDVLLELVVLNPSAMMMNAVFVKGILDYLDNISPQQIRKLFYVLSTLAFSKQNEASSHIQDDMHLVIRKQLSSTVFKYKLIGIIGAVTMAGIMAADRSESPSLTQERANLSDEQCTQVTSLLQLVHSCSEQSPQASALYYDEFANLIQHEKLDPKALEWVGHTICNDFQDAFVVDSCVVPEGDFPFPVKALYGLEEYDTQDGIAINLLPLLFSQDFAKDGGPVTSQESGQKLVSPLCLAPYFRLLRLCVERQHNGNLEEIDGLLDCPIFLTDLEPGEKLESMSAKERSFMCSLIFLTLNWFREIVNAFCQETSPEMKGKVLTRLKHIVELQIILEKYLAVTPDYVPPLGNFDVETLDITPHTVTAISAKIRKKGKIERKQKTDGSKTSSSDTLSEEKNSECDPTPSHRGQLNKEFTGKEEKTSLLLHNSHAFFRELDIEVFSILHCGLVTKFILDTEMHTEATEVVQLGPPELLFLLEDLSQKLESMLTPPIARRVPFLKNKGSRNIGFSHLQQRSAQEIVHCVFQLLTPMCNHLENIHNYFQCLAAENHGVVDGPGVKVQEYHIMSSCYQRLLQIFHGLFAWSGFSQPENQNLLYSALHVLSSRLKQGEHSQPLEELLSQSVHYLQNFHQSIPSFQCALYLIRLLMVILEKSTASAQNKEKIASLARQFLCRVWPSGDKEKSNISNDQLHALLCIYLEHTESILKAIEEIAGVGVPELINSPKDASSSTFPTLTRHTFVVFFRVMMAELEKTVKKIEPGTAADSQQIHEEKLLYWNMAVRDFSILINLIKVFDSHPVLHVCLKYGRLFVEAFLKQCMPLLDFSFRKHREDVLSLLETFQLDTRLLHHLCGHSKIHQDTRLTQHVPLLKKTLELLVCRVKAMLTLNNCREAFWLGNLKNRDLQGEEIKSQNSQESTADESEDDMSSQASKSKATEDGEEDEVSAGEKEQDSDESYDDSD

Legend:
[1] = target: T1, GFP-PolK UBZ mutant (double ubiquitin-binding domain mutant, D644A/D799A) (human) (UniProt Q9UBT6); test: cross-linking + co-IP; 293T sgPolK cells expressing GFP-PolK WT or UBZ mutant, with or without HU (2 mM, 4 hr); 1% formaldehyde crosslinking 10 min, lysis in 0.3% SDS, sonication, dilution 1:8; pulldown with anti-GFP agarose beads overnight at 4°C; Western blot
T1 sequence: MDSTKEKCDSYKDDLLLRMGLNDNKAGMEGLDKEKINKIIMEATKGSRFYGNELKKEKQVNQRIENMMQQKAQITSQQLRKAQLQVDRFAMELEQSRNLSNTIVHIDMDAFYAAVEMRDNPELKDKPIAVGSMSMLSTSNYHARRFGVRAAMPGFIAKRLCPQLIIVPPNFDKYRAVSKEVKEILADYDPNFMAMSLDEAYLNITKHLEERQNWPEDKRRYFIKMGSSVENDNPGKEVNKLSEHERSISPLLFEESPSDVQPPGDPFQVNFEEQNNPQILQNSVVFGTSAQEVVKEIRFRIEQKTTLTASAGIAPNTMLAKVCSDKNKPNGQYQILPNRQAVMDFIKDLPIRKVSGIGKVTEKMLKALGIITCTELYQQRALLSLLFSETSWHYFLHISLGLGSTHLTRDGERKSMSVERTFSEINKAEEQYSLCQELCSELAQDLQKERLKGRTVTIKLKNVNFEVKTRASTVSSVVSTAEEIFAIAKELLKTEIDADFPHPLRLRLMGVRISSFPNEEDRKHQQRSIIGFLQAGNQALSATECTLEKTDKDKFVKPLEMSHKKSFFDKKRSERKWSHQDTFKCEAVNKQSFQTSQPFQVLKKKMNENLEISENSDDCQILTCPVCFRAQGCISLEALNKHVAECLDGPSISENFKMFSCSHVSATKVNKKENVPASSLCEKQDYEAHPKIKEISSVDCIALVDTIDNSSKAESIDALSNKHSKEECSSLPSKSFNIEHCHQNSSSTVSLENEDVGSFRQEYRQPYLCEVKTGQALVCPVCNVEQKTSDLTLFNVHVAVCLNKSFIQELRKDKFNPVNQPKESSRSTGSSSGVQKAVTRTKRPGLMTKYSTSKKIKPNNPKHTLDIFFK

[2] = target: T2, GFP-tagged PolK wild-type (translesion DNA polymerase kappa) (human) (UniProt Q9UBT6); test: as above
T2 sequence: T1 sequence with A644D, A799D

| Substance | binding [1] | binding [2] |
| --- | --- | --- |
| FANCI (from UniProt Q9NVI1 1-1328) | binds | binds |
| FANCD2 (from UniProt Q9BXW9 1-1451) | binds | binds |
